Results reported in publication PMC11304230.
Results are given in words; binding and its absence hold for the method and conditions named. For some assays here: Binding seen in cells or lysates may run through a third protein. Some entries that bind do so weakly or less than the wild type. Values belong to the substance of their own block, whether it stands above or below them.

Protein sequences, listed by entry. Tags and fused reporters are not part of them. Residues count along the entry.
UniProt Q6X4U4, residues 24-206: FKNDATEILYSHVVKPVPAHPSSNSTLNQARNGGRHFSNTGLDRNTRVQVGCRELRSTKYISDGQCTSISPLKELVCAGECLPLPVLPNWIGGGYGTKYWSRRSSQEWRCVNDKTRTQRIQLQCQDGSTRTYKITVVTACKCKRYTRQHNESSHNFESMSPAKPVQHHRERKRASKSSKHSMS
UniProt O14646: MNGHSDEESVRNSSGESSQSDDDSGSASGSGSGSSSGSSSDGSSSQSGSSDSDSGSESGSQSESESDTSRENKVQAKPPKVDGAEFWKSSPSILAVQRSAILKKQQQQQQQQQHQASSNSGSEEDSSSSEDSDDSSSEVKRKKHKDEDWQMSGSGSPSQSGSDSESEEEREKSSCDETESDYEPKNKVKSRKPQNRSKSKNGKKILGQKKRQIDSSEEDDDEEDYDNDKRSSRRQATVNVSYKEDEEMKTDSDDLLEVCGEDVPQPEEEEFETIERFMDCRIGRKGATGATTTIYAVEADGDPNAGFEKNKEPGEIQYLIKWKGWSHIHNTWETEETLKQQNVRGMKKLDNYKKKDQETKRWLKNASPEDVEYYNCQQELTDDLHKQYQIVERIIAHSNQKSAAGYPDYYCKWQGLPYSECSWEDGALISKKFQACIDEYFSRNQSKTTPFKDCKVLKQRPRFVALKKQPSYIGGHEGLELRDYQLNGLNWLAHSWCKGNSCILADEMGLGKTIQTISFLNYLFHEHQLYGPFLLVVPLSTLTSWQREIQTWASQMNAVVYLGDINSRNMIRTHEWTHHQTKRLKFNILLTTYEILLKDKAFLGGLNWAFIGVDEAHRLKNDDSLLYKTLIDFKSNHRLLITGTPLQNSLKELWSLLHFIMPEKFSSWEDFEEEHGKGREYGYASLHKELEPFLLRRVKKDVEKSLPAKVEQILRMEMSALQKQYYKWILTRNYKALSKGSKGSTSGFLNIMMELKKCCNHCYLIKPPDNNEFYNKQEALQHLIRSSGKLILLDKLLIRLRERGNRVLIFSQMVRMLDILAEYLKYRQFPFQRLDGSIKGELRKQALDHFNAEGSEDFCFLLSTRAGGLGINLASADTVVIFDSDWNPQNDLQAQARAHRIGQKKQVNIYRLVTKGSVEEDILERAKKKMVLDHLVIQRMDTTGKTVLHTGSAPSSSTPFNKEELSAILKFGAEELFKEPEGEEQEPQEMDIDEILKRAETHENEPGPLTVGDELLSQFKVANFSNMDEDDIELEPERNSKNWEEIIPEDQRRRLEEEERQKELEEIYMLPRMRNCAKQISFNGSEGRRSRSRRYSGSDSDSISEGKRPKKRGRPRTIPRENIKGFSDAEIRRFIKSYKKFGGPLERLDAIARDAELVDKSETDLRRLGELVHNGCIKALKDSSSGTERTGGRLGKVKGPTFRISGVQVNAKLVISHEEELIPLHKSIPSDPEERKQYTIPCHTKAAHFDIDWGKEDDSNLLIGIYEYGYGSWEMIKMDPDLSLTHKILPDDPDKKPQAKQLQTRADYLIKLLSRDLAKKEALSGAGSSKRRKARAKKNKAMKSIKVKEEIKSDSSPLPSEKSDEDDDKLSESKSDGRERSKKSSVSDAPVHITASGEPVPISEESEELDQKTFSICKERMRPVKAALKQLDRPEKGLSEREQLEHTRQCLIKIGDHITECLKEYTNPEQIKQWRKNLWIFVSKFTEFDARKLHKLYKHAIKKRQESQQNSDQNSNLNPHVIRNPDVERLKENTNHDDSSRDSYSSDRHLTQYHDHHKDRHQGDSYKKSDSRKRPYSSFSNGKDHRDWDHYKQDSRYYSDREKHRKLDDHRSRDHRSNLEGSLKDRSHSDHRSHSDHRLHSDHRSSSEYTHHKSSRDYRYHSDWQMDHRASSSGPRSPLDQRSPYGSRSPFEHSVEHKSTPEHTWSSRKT
UniProt O00505: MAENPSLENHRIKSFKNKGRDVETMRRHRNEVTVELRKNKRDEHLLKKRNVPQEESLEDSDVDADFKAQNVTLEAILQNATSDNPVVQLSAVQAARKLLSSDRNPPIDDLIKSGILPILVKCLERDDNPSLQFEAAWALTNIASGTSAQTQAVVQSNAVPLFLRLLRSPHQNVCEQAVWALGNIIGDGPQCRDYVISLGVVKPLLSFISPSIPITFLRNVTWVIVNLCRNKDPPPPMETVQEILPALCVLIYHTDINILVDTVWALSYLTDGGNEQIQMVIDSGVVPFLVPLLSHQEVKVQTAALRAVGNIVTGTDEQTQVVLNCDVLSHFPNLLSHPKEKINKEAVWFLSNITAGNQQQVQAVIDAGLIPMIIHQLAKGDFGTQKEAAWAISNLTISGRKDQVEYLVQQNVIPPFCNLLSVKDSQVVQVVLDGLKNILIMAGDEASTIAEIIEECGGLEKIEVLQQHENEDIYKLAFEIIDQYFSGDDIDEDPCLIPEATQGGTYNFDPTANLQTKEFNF
UniProt P52294: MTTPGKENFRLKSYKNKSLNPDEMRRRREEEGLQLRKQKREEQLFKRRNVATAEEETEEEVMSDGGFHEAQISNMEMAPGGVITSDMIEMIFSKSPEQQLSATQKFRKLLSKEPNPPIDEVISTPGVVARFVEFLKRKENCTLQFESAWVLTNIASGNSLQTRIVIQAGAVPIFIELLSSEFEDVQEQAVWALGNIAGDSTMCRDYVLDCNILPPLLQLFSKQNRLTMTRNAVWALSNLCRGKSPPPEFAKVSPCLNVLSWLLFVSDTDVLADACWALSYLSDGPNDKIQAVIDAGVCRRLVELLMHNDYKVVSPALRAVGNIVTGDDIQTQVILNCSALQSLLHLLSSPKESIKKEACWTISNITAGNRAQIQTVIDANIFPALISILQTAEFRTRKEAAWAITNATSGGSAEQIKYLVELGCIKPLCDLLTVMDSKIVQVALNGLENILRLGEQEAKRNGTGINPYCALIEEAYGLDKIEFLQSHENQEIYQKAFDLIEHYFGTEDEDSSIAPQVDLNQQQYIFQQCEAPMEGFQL
UniProt Q9Y297: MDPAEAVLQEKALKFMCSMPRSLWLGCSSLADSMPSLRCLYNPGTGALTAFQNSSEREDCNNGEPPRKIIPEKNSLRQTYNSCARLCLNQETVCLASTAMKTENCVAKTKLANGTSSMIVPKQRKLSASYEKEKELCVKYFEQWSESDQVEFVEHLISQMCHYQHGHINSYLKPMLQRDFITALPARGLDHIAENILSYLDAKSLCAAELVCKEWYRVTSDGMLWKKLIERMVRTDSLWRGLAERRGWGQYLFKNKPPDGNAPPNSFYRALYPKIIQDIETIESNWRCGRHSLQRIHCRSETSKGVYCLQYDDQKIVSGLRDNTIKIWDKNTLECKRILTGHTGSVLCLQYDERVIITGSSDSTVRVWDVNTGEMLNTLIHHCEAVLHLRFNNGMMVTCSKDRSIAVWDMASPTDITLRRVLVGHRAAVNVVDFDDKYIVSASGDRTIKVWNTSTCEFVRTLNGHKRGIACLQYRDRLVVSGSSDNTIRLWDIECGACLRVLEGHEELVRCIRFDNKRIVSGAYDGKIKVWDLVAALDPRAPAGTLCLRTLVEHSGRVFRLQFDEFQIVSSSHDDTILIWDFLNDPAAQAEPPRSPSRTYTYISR

Key:
[1] = biological target: FLAG-tagged SOSTDC1 stably overexpressed in SUM159 cells (UniProt Q6X4U4); test: co-IP; nuclear lysate of FLAG-tagged SOSTDC1-overexpressing SUM159 cells, anti-FLAG magnetic beads, western blot
[2] = biological target: FLAG-tagged SOSTDC1 stably overexpressed in SUM159 cells (UniProt Q6X4U4); test: co-IP; cytoplasmic lysate of FLAG-tagged SOSTDC1-overexpressing SUM159 cells, anti-FLAG magnetic beads, western blot
[3] = biological target: FLAG-tagged SOSTDC1 stably overexpressed in SUM159 cells (UniProt Q6X4U4); test: co-IP; co-IP of SOSTDC1 and CHD1 with or without 1 µmol/L Olaparib for 12 h; cells and constructs not named in the legend
[4] = biological target: HA-tagged full-length CHD1 (chromatin helicase DNA-binding factor), transfected (UniProt O14646); test: co-IP; 293T cells transfected with HA-tagged CHD1 (full length or truncated mutants a, b, c) and FLAG-tagged SOSTDC1; magnetic beads with antibodies to FLAG or HA; western blot (cells of Figure 4C not named)
[5] = biological target: HA-tagged SOSTDC1, transfected into 293T cells (UniProt Q6X4U4); test: co-IP; 293T cells transfected with HA-tagged SOSTDC1 and FLAG-tagged wild type or β-TrCP-binding-motif mutants of CHD1; anti-HA magnetic beads; western blot
[6] = biological target: HA-tagged full-length CHD1 (chromatin helicase DNA-binding factor), transfected (UniProt O14646); test: co-IP; co-IP of β-TrCP and CHD1 from cells in the presence or absence of SOSTDC1 (Figure 5M); co-IP of β-TrCP with CHD1 (Figure S10A)
[7] = biological target: Purified FLAG-tagged CHD1 recombinant protein (GST fusion from pGEX-6p-1) (UniProt O14646); test: co-IP; in vitro co-IP: purified HA-tagged SOSTDC1 and FLAG-tagged CHD1 recombinant proteins, anti-FLAG magnetic beads, western blot; both purified
[8] = biological target: Purified FLAG-tagged CHD1 recombinant protein (GST fusion from pGEX-6p-1) (UniProt O14646); test: co-IP; in vitro co-IP of CHD1 and β-TrCP in the presence or absence of SOSTDC1; GST-fusion proteins purified from E. coli BL21; both purified
[9] = biological target: FLAG-KPNA3 (importin-α family karyopherin) (UniProt O00505); test: co-IP; 293T cells co-transfected with SOSTDC1 and FLAG-tagged KPNA vectors for 36 h, then Olaparib for 4 h; lysates on anti-FLAG magnetic beads; immunoblot
[10] = biological target: FLAG-KPNA1 (importin-α family karyopherin) (UniProt P52294); test: as above

Substance: Endogenous CHD1 of SUM159 cells (from UniProt O14646 1-1710)
- binding [1]: binds
- binding [2]: no binding (condition: in the cytoplasmic lysate)
- binding [3]: binds

Substance: FLAG-tagged SOSTDC1 (sclerostin domain containing protein 1), transfected into 293T cells (from UniProt Q6X4U4 24-206)
- binding [4]: binds

Substance: Purified HA-tagged SOSTDC1 recombinant protein (GST fusion from pGEX-6p-1) (from UniProt Q6X4U4 24-206)
- binding [7]: binds

Substance: Purified β-TrCP recombinant protein (GST fusion from pGEX-6p-1) (from UniProt Q9Y297 1-605)
- binding [8]: binds

Substance: SOSTDC1 (tag not stated), co-transfected into 293T cells (from UniProt Q6X4U4 24-206)
- binding [9]: binds
- binding [10]: binds
- binding [6]: binds

Continued, values first:

- binding [5]: binds
Substance: FLAG-tagged wild type CHD1, transfected into 293T cells (from UniProt O14646 1-1710)

- binding [6]: binds
Substance: FLAG-tagged β-TrCP (β-transducin repeat-containing protein), overexpressed in cells (from UniProt Q9Y297 1-605)
